The source of these data is the supplement of paper PMC12889115.

The other results are listed elsewhere or left out. Values are raw readings; no control value is given beside them.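 First-pass screen: polymyxin B was added at a level that permeabilizes the Salmonella outer membrane while sparing the inner membrane. DMSO wells, with and without polymyxin B, defined maximum growth. Because plates differed from one another, each plate's data were ranked separately and the compounds with the lowest OD600 were carried forward as hits.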

This assay relates to Salmonella enterica serovar Typhimurium SL1344. Kind of assay: bacterial growth OD600 after 18 h with compound and polymyxin B; higher = more bacterial growth (less inhibition). To be noted: 50 µM, Mueller-Hinton broth.

For `CCN(CC)CCC(=O)NCc1nc(NCc2cccc(C(F)(F)F)c2)c2ccccc2n1`, the “bacterial growth OD600” value (polymyxin B 0.75 µg/mL) amounted to 1.04.

For the compound `COc1ccc(CN2CC[C@@H](N3CCCCCC3)[C@H](O)C2)c(F)c1`, the “bacterial growth OD600” value (polymyxin B 0.75 µg/mL) stood at 0.768.

`CCOC(=O)N1CCC(NC(=O)CN2Cc3ccccc3OC(c3ccccc3OC)C2)CC1` (stereo not given): the “bacterial growth OD600” value (polymyxin B 0.75 µg/mL) worked out at 0.004.

Regarding `C=CCCC(=O)N1CCCC(N2CCN(c3cccc(Cl)c3)CC2)C1` (stereo not given), where the note is “polymyxin B 1 µg/mL”, the “bacterial growth OD600” value came out at 0.942.

As for `O=C(NCc1ccccn1)c1cccc(OC2CCN(C(=O)C3=CCCC3)CC2)c1`, the “bacterial growth OD600” value (polymyxin B 1 µg/mL) was determined as 1.24.

`O=C(NC1Cc2ccccc2C1)c1cc(CCc2ccccc2)no1`: the “bacterial growth OD600” value (polymyxin B 0.75 µg/mL) came to 0.802.

Consider `CN(C(=O)c1cc2c([nH]c1=O)CCCC2)C1CCCN(Cc2ccccc2F)C1` (stereo not given), for which, where the note is “polymyxin B 0.75 µg/mL”, the “bacterial growth OD600” value came to 0.858.

Consider `COCCc1nc2ccc(C(=O)NCCN3CCC(c4ccccc4)C3)cc2o1` (stereo not given), for which the “bacterial growth OD600” value (polymyxin B 0.75 µg/mL) worked out at 0.955.

Regarding `CCC1CN(CCNC(=O)CC2NC(=O)c3ccccc32)Cc2cc(OC)ccc2O1` (stereo not given), the “bacterial growth OD600” value (polymyxin B 0.75 µg/mL) was 0.918.

Take `C=CCOc1ccccc1CN1CCC(C(Cc2ccccc2)N(CC)C(=O)C2CCOCC2)CC1` (stereo not given): the “bacterial growth OD600” value (polymyxin B 0.75 µg/mL) was 0.941.

In the case of `O=C(C1CCN(c2nc(-c3ccccc3)nc3c2CCC3)CC1)N1CCC(O)CC1`, where the note is “polymyxin B 1 µg/mL”, the “bacterial growth OD600” value turned out to be 0.802.

In the case of `OC1CCCN(c2ccc(-c3nc(Cc4ccc(F)cc4)no3)cn2)C1` (stereo not given), where the note is “polymyxin B 0.75 µg/mL”, the “bacterial growth OD600” value is 0.512.

Take `COCCN1CCN(C(=O)CC(c2ccccc2)c2ccccc2Cl)CC1` (stereo not given): the “bacterial growth OD600” value (polymyxin B 1 µg/mL) stood at 0.83.

Consider `CC(C)S(=O)(=O)N1CCC(C2CCN(Cc3cccnc3)CC2)C1` (stereo not given), for which the “bacterial growth OD600” value (polymyxin B 0.75 µg/mL) came to 0.801.

In the case of `CCOC(=O)C1(Cc2ccccc2F)CCCN(C(=O)c2csc(C(C)=O)c2)C1` (stereo not given), the “bacterial growth OD600” value (polymyxin B 1 µg/mL) was determined as 0.826.

For `CCCC1(C2CCN(C(=O)C3=CCCC3)CC2)NC(=O)N(CCc2ccccn2)C1=O` (stereo not given), the “bacterial growth OD600” value (polymyxin B 0.75 µg/mL) turned out to be 0.965.

As for `CCOC(=O)N1CCN(c2ccc(-c3nc(C4CC4)no3)cn2)CC1`, for the setting “polymyxin B 0.75 µg/mL”, the “bacterial growth OD600” value stood at 0.475.

On to `Cc1ccccc1CC1(CO)CCCN(Cc2ccccc2Cl)C1` (stereo not given), for which the “bacterial growth OD600” value (polymyxin B 1 µg/mL) is 0.026.

Consider `CN(C)CCNC(=O)c1ccc(OC2CCN(C(=O)CCC3(C)CC3)CC2)c(Cl)c1`, for which, where the note is “polymyxin B 0.75 µg/mL”, the “bacterial growth OD600” value is 0.8.

With `CC1(C)CC(Nc2nc3nonc3nc2NCc2cccs2)CCO1` (stereo not given), where the note is “polymyxin B 1 µg/mL”, the “bacterial growth OD600” value came to 0.882.

As for `CC(=O)N1CCC(N2CCCC(CCc3cccc(C(F)(F)F)c3)C2)CC1` (stereo not given), the “bacterial growth OD600” value (polymyxin B 0.75 µg/mL) was 0.798.

As for `CCOC(=O)N1CCC(NC2CCN(c3ccc(NC(=O)Cc4cccc(F)c4)cc3)CC2)CC1`, the “bacterial growth OD600” value (polymyxin B 0.75 µg/mL) was 0.918.

For the compound `COc1cc(OC)c2nc(-c3cc4c(c(OC)c3)OCCN(C(=O)Cc3cc(OC)c(OC)c(OC)c3)C4)cc(C)c2c1`, for the setting “polymyxin B 0.75 µg/mL”, the “bacterial growth OD600” value was found to be 0.862.

On to `CCCCNCc1ccc(OCC(O)CN2CCSCC2)c(OC)c1` (stereo not given), for which the “bacterial growth OD600” value (polymyxin B 1 µg/mL) came out at 0.98.

For `O=C(c1cnc[nH]1)N1CCC2(CCCN(CCC3CCCCC3)C2)C1` (stereo not given), for the setting “polymyxin B 1 µg/mL”, the “bacterial growth OD600” value amounted to 1.03.

As for `COc1ccccc1CCN1CCC(CN(C)C(=O)c2ccc(F)cc2F)CC1`, the “bacterial growth OD600” value (polymyxin B 1 µg/mL) was determined as 1.24.

`c1ccc(-c2ncc3c(n2)CCCC3NCc2c[nH]cn2)cc1` (stereo not given): the “bacterial growth OD600” value (polymyxin B 0.75 µg/mL) was found to be 0.957.

Regarding `COc1ccc(C(=O)C2CCCN(C(=O)c3ccc(C)c(C)c3)C2)cc1OC` (stereo not given), the “bacterial growth OD600” value (polymyxin B 1 µg/mL) was found to be 0.913.

As for `Cc1ccc(CN2CCC(CN(C)Cc3cnc(-c4ccccc4)s3)CC2)o1`, the “bacterial growth OD600” value (polymyxin B 0.75 µg/mL) amounted to 0.75.

Turning to `COc1cc(OC)c(OC)cc1CN1CC[C@@H](N2CCC(O)CC2)[C@H](O)C1`, the “bacterial growth OD600” value (polymyxin B 0.75 µg/mL) turned out to be 0.769.
